Measured values from the supplement of paper PMC10735217.
Counter-ions that a name gives are not always drawn. The list shows a part of the results. This data set is noisy: repeats of one test often differ as much as different tests do.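 In a drug-repurposing library screen, luminescence reads luciferase driven by eight TEAD-binding elements, stably integrated into human kidney-derived cells. Compounds scoring over five robust Z scores above the plate mean are called hits.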

System: HEK293A TEAD-LUC reporter
Assay: TEAD-luciferase reporter activity (YAP activation), robust Z score vs plate; higher = stronger YAP/TEAD activation
Settings: 24 h

| SMILES | TEAD-luciferase reporter activity (compound concentration: 200 nM) | TEAD-luciferase reporter activity (compound concentration: 2 uM) | TEAD-luciferase reporter activity (compound concentration: 10 uM) |
| --- | --- | --- | --- |
| CCOC(=O)c1c(C)cc2nc(COC(=O)NCCO)n(-c3ccccc3S(=O)(=O)NC)c(=O)c2c1C | inactive: -0.751 | inactive: -1.37 | inactive: -0.687 |
| CCC1(CC)C(=O)NC(=O)N(C)C1=O | inactive: -1.55 | inactive: 0.235 | inactive: -0.34 |
| CCc1c2c(nc3ccccc13)-c1cc3c(c(=O)n1C2)COC(=O)[C@]3(O)CC | inactive: -0.709 | inactive: -1.28 | inactive: -1.85 |
| N#CCC(=O)c1ccccc1 | inactive: -0.837 | inactive: -1.52 | inactive: -0.212 |
| C#CCN(C)[C@H](C)Cc1ccccc1 [selegiline, Elan Transdermal] | – | inactive: -0.522 | – |
| C#CCN(C)[C@H](C)Cc1ccccc1 | inactive: 2.65 | – | inactive: 0.255 |
| N#CC(CCN1CCNCC1)(c1ccccc1)c1ccccc1 | inactive: -2.06 | inactive: -2.91 | inactive: -0.624 |
| NC1=NCC(c2ccc(Br)cc2)O1 (stereo unspecified) | inactive: 0.353 | inactive: 0.917 | inactive: 0.356 |
| CNC1CCc2[nH]c3c(F)cc(F)cc3c2C1 (stereo unspecified) | inactive: -0.745 | inactive: -0.98 | inactive: 0.309 |
| C[N+]1(C)C2CC(O)CC1C1OC12 (stereo unspecified) | inactive: -0.712 | inactive: -0.0476 | inactive: -0.677 |
| CCn1nc(C)c2c1C(c1ccccc1)=NCC(=O)N2 [ripazepam] | inactive: -1.03 | inactive: 0.147 | inactive: -1.15 |
| CC(CC(C(N)=O)(c1ccccc1)c1ccccn1)N(C)C (stereo unspecified) | inactive: 0.425 | inactive: 1.76 | inactive: -0.539 |
| CC12CC[C@H]3[C@@H](CC[C@@]45O[C@@H]4C(=O)C(C#N)CC35C)[C@@H]1CC[C@@H]2O (stereo partly specified) [Trilostane] | inactive: -1.45 | inactive: -1.06 | inactive: 0.302 |
| CCN(CC)C(=O)N[C@H]1C=C2c3cccc4[nH]cc(c34)C[C@H]2N(C)C1 [lisuride hydrogen maleate, Sinoxa] | inactive: 2.54 | inactive: 0.572 | inactive: 0.992 |
| CC(C)=CC1C(C(=O)OCc2cccc(Oc3ccccc3)c2)C1(C)C (stereo unspecified) | inactive: -1.24 | inactive: -2.31 | inactive: -0.269 |
| CC(N)(Cc1ccccc1)c1ccccc1 (stereo unspecified) | inactive: -0.763 | inactive: -1.34 | inactive: 0.956 |
| CCCC(Cc1ccccc1)N1CCCC1 (stereo unspecified) | inactive: -0.57 | inactive: -0.976 | inactive: -1.23 |
| Oc1ccc2c3c1O[C@H]1c4[nH]c5ccccc5c4C[C@@]4(O)[C@@H](C2)N(CC2CC2)CC[C@]314 [Naltrindole] | inactive: -0.442 | inactive: -1.36 | inactive: 2.43 |

Part of the list above with just TEAD-luciferase reporter activity (compound concentration: 200 nM) and TEAD-luciferase reporter activity (compound concentration: 10 uM):
SMILES	TEAD-luciferase reporter activity (compound concentration: 200 nM)	TEAD-luciferase reporter activity (compound concentration: 10 uM)
CCC1(CC)C(=O)NC(=O)N(C)C1=O	inactive: -1.55	inactive: -0.34
CCc1c2c(nc3ccccc13)-c1cc3c(c(=O)n1C2)COC(=O)[C@]3(O)CC	inactive: -0.709	inactive: -1.85
